Measurements: patent US20110207119A1, “METHODS FOR PREDICTING A CANCER PATIENT'S RESPONSE TO SUNITINIB” (priority 2010, published 2011)
At least one compound was matched to its structure with a doubt left.

Test system: SKOV3 cell line (ovarian carcinoma cell line)
Experiment: in vitro dose response of the SKOV3 cell line to sunitinib
Type: cell-based
Details: SKOV3, doses of Table 1 (0.108-55.3 μM), 72 hours

## CCN(CC)CCNC(=O)c1c(C)[nH]c(/C=C2\C(=O)Nc3ccc(F)cc32)c1C [sunitinib, Sunitinib]
  response of cell line to sunitinib exposure (dose response curve): consistent response
